{
  "sequences": {"note": "Chains of the proteins cited; added tags and fusions are not shown. Residues count along the entry.", "UniProt Q00613, residues 15-120": "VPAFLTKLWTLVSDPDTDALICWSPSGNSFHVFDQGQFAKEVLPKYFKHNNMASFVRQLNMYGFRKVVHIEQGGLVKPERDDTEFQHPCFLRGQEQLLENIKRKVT", "UniProt Q03933, residues 7-112": "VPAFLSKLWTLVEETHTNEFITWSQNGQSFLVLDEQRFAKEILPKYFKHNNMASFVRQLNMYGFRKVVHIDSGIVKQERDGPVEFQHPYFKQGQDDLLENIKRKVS"},
  "source": "paper PMC8379338",
  "about": "“Structures of heat shock factor trimers bound to DNA” (iScience, 2021)",
  "key": {"[1]": {"biological_target": "DNA-binding domain (DBD) of human heat shock factor 1 (HSF1), residues 15-120 (human) (UniProt Q00613)", "assay": "crystal structure; DBD co-crystallised with a blunt-ended two-site head-to-head HSE DNA duplex (12 bp for HSF2, 14 bp for HSF1); protein:DNA molar ratio 2:1.5; hanging drop, 20°C; two DBD copies on one DNA duplex; both purified"}, "[2]": {"biological_target": "DNA-binding domain (DBD) of human heat shock factor 2 (HSF2), residues 7-112 (human) (UniProt Q03933)", "assay": "crystal structure; DBD co-crystallised with a blunt-ended two-site head-to-head HSE DNA duplex (12 bp for HSF2, 14 bp for HSF1); protein:DNA molar ratio 2:1.5; hanging drop, 20°C; two DBD copies on one DNA duplex; both purified"}},
  "note": "Results are given in words; binding and its absence hold for the method and conditions named. Some binding calls cover weakened binding; strength is not graded here.",
  "data": [
    {"substance": "DNA-binding domain (DBD) of human heat shock factor 1 (HSF1), residues 15-120 (from UniProt Q00613 15-120) (domain or fragment)", "values": [
      {"measurement": "binding", "setting": "[1]", "value": "binds weakly"}
    ]},
    {"substance": "DNA-binding domain (DBD) of human heat shock factor 2 (HSF2), residues 7-112 (from UniProt Q03933 7-112) (domain or fragment)", "values": [
      {"measurement": "binding", "setting": "[2]", "value": "binds weakly"}
    ]}
  ]
}
